From patent US20140011769A1, “Methods of Treating Retroviral Infections and Related Dosage Regimes” (Chimerix, Inc., priority 2012, published 2014)
Some results were stated once for a whole list of compounds, not compound by compound.

Test system: HTLV-I
Experiment: Co-culture assay for HTLV-I, virus replication by p19 Gag ELISA
Format: cell-based
Conditions: following 2 weeks in culture
Experimental: PBMC Preparation: Fresh human peripheral blood mononuclear cells (PBMCs), obtained from Biological Specialty Corporation, Bristol, Pa., were confirmed as seronegative for HIV and HBV. Depending on the volume of the donor blood received, the leukophoresed blood cells were washed several times with PBS. After washing, the leukophoresed blood was diluted 1:1 with Dulbecco's phosphate buffered saline (PBS) and layered over 15 mL of Ficoll-Hypaque density gradient in a 50 mL conical centrifuge tube. These tubes were then centrifuged for 30 min at 600 g. Banded PBMCs were gently aspirated from the resulting interface and subsequently washed three times with PBS by low speed centrifugation. […]
HDP-TFV was evaluated at concentrations of 0.04, 0.2, 1 and 10 μM. AZT and tenofovir were evaluated at concentrations of 0.1, 1, 5 and 25 μM. […]
MT-2 Preparation: MT-2 cells were obtained from the NIH AIDS Research and Reference Reagent Program and passaged in T-75 flasks in RPMI 1640 medium, supplemented with 10% heat inactivated fetal bovine serum, 2 mmol/L L-glutamine, 100 U/ml penicillin and 100 μg/ml streptomycin. Total cell and viability quantification were performed using hemocytometer and trypan blue dye exclusion. […]
Co-Culture for HTLV-I Replication: Cell cultures were incubated at 37° C./5% CO2 for four weeks. Cell viability and density was monitored by trypan blue dye exclusion test. […]

For `Cc1cn([C@H]2C[C@H](N=[N+]=[N-])[C@@H](CO)O2)c(=O)[nH]c1=O` [AZT, 3′-azido-2′,3′-dideoxythymidine], the “concentration inhibiting HTLV-I replication as measured by p19 ELISA” value was “above 10 M”.
